From article PMC9616950, “A toxin-deformation dependent inhibition mechanism in the T7SS toxin-antitoxin system of Gram-positive bacteria” (Nature Communications, 2022)
No constants are given. Whether binding was seen depends on the method and setting. Some results given as binding are weak or reduced against the parent protein; the word gives no strength.

Sequences of proteins named here, by UniProt entry; tags and fusion partners are left off. Residues count along the entry.
NFL (EsaD residues 450-503) (Q2G179, residues 450-503): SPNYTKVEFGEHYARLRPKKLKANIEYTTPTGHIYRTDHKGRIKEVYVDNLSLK
CFL (EsaD residues 504-614) (Q2G179, residues 504-614): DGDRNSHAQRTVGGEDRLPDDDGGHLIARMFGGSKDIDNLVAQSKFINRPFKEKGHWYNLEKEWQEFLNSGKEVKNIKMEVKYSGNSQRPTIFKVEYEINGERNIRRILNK

Legend:
EsaG (S. aureus) = biological target: T1, EsaG (S. aureus) (UniProt Q2G178); experiment: SEC; gel filtration of purified proteins and their mixtures; column and buffer not told for these runs; both purified
T1 sequence: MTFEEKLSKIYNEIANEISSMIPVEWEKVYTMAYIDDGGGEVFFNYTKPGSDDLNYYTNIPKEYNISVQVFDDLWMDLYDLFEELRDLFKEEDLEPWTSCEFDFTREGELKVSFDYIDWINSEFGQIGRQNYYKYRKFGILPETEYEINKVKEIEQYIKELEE

[1] = biological target: His-EsaDc-NFL (His-SUMO-tagged EsaD residues 450-503) (S. aureus) (UniProt Q2G179); experiment: pull-down; His-SUMO-tagged protein on Ni-NTA beads with untagged protein (0.16 mM : 0.2 mM); 25 mM Tris-HCl pH 8.0, 1 M NaCl, 24 °C, 30 min; Coomassie-stained SDS-PAGE; both purified
[2] = biological target: NFL (EsaD residues 450-503) (S. aureus) (UniProt Q2G179); experiment: 2D 1H,15N-HSQC NMR; 15N-CFL (0.25 mM) with unlabeled NFL (1.0 mM) and 15N-NFL (1.0 mM) with unlabeled CFL (1.5 mM), compared with 15N-EsaDc (0.4 mM); 200 mM NaCl, 27 mM KCl, 30 mM Na2HPO4, 1.8 mM KH2PO4, pH 6.5, 20 °C; both purified

Measured: binding

CFL (EsaD residues 504-614) (from UniProt Q2G179 504-614) (domain or fragment)
binds: EsaG (S. aureus) | [1] | [2]
